Type in all cases: cell-based
Holding throughout (conditions): tested form: HCl

Amino acid sequences for entries named in this document (tags omitted).
UniProt P28223, whole entry: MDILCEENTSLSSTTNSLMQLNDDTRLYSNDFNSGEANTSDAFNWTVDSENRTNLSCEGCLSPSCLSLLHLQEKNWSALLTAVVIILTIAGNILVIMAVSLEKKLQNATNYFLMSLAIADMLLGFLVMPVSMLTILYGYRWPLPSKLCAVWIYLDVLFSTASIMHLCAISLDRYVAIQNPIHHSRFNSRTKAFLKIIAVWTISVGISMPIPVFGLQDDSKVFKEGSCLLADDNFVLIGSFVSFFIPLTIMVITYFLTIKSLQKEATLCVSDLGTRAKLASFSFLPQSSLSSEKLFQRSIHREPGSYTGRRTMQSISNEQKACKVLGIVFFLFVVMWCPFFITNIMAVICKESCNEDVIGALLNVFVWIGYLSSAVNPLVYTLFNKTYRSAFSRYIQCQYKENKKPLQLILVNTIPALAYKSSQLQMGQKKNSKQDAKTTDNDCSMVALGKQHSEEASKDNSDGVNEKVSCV
UniProt P11229, whole entry: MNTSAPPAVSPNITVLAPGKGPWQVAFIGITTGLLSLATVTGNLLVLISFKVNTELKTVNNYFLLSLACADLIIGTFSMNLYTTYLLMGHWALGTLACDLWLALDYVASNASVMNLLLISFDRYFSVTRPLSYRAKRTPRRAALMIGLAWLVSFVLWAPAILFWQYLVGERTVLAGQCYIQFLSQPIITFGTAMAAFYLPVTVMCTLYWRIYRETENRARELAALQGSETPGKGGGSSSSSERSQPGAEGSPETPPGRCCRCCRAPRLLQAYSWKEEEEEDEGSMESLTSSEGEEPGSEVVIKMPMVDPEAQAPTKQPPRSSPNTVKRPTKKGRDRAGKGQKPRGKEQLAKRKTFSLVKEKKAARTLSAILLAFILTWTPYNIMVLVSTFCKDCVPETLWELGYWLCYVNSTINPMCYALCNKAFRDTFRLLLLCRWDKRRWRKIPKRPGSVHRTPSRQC
UniProt P08172, whole entry: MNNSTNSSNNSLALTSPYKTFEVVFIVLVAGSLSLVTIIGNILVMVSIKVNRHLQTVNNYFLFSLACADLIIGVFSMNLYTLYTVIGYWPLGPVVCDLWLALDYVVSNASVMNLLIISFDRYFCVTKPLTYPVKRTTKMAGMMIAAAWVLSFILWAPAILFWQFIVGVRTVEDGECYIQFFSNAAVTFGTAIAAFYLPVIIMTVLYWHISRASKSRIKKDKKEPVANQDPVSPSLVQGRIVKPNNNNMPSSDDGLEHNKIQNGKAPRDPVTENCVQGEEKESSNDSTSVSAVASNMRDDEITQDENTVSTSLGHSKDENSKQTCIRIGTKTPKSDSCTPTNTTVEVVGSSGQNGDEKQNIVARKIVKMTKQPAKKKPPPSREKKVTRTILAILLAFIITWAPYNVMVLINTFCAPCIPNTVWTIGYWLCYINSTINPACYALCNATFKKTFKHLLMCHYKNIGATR

The target in one assay is 5-HT2A (Homo sapiens, UniProt P28223). In words: GPCR Calcium Flux assay (FLIPR tetra, Eurofins), 5-HT2A. The procedure:
(§1) In order to confirm whether the compounds prepared in the above Examples act as an agonist or antagonist against GPCR Target, Calcium Flux assay was performed in an assay plate in which the compounds prepared in the Examples, vehicle controls, and reference compounds were added, using a Fluorometric imaging plate reader (FLIPR tetra) equipment.
(§2) Calcium Flux assay was evaluated by entrusting the GPCR profiler assay in Safety panel assays with Eurofins. By using the Fluo-8AM calcium dye, excitation was measured at a wavelength in the range of 470 to 495 nm and Emission was measured at a wavelength in the range of 515-575 nm. GPCR Assay Buffer for Calcium Flux assay was prepared by adding 20 mM of HEPES and 2.5 mM of Probenecid to Hanks Balanced Salt Solution (HBSS) to have pH 7.4. The Compounds of Examples for evaluation of the GPCR were diluted with DMSO at a concentration of 10 mM to make a stock and then prepared by diluting in the GPCR Assay Buffer at the concentration equivalent to three times the final concentration. […] In order to evaluate the agonist and antagonist, % inhibition rate against GPCR activity before and after treatment of the compounds and the inhibitory activity of the compounds of the Examples were determined. […]

The target in a further assay is M1 (Homo sapiens, UniProt P11229). Description: GPCR Calcium Flux assay (FLIPR tetra, Eurofins), M1. The procedure:
as §1, §2

In a further assay the target is M2 (Homo sapiens, UniProt P08172). In words: GPCR Calcium Flux assay (FLIPR tetra, Eurofins), M2. The protocol: as §1, §2
For orientation: Calcium flux is commonly read through the fluorescence of an indicator in the cells.

pIC50: −log10 of the molar value. The structures given here were assigned with low confidence; some may be wrong.

Take `CNCc1cn(S(=O)(=O)c2cccc(F)c2)c(-c2c(F)ccc(F)c2F)c1OC`: the pIC50 is 7.24 at 5-HT2A (read-out: 50% inhibitory concentration (IC50) 5-HT2A, 8 concentrations 10 to 0.0006 uM); 7.29 on M1 (read-out: 50% inhibitory concentration (IC50) M1, 8 concentrations 10 to 0.0006 uM); 6.74 on M2 (read-out: 50% inhibitory concentration (IC50) M2, 8 concentrations 10 to 0.0006 uM). Moreover, on 5-HT2A (single concentration of 10 uM), the “inhibition rate (%) 5-HT2A” value is listed as 99.1%. Besides, the “inhibition rate (%) M1” value on M1 (single concentration of 10 uM) was 101.1%. Moreover, the “inhibition rate (%) M2” value at M2 (single concentration of 10 uM) is 100.3%.

The values are drawn from patent US10100010B1, “4-methoxy pyrrole derivatives or salts thereof and pharmaceutical composition comprising the same” (Daewoong Pharmaceutical Co., Ltd., priority 2015, dated 2018).
